Experimental data taken from patent publication US20250313634A1.
No constants are given. Whether binding was seen depends on the method and setting. Some binding calls cover weakened binding; strength is not graded here.

Chains of the proteins cited; added tags and fusions are not shown. Residues count along the entry.
UniProt Q9NZQ7, residues 19-290: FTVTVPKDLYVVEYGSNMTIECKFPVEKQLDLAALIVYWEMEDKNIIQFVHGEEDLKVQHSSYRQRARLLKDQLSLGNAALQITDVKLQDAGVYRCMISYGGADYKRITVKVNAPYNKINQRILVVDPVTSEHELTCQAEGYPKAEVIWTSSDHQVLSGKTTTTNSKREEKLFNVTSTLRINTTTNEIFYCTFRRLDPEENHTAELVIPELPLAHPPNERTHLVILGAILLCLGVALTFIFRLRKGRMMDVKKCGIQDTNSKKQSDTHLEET

What was measured:
[1] = molecular target: cynomolgus monkey PD-L1 (cynomolgus monkey) (UniProt G7PSE7); experiment: ELISA, antigen coated
[2] = molecular target: cynomolgus monkey PD-L1 (cynomolgus monkey) (UniProt G7PSE7); experiment: ELISA, cynomolgus PD-L1 coated on the plate, goat anti-human IgG Fc-HRP; single bar, antibody concentration not shown
[3] = molecular target: full-length human PD-L1 expressed on CHO cells (human) (UniProt Q9NZQ7); experiment: FACS competition: antibody pre-bound to CHO cells expressing human PD-L1, then mouse Fc-tagged human PD-1 added and detected
[4] = molecular target: full-length human PD-L1 expressed on CHO cells (human) (UniProt Q9NZQ7); experiment: FACS on CHO cells transfected with PD-L1
[5] = molecular target: full-length human PD-L1 expressed on CHO cells (human) (UniProt Q9NZQ7); experiment: FACS on PD-L1 transfected CHO-K1 cells, single bar, antibody concentration not shown
[6] = molecular target: full-length human PD-L1 expressed on CHO cells (human) (UniProt Q9NZQ7); experiment: FACS on CHO cells transfected with full-length human PD-L1
[7] = molecular target: full-length human PD-L1 expressed on CHO cells (human) (UniProt Q9NZQ7); experiment: FACS

Measured: binding

B1: 1.20.15 (antibody, V domains shown)
VH: QLQLQESGPGLVKPSETLSLTCTVSGGSISSISNYWGWIRQPPGKGLEWIGSIYYSGSTNYNPPLKSRVTISVDTTKNQFSLKLSSVTAADTAVYYCARLTYYFDYWGQGMLVTVSS
VL: SYDLTQPPSVSVSPGQTASITCSGDKLGDKYACWYQQKPGQSPLLVIQQDSKRPSGIPARFSGSNSGNTATLTISGTQAMDEADYFCQTWDSSTVVFGGGTKLTVL
binds: [1] | [2]

B2: 1.4.1 (antibody, V domains shown)
VH: QLQLQESGPGLVKPSESLSLTCTVSGGSISIRTYYWGWIRQPPGTGLEWMGYIYYSGSTRYNPSLKSRVTISVDTSKNQFSLKLSSVTAADTAVYYCARLSYFFDYWGQGTLVTVSS
VL: SYELTQPPSVSVSPGQTASITCSGDKLGDKYACWYQQKPGQSPVMVIYQDTKRPSGIPERFSGSNSGNTATLTISGTLAMDEADYYCQAWDSGTVIFGGGTKLTVL
binds: all assays above
